Measured values published in publication PMC4176325.
No constants are given. Whether binding was seen depends on the method and setting. Where a sequence is shown, tags or fusion partners need not be part of it.

Target: intron debranching enzyme (Dbr1) from Entamoeba histolytica (Entamoeba histolytica) (UniProt C4M1P9)
Assay: AUC; sedimentation velocity; Dbr1 at 0.3 mg/ml, 40 000 rpm, 20°C, 20 mM HEPES pH 7.4, 100 mM NaCl; van Holde-Weischet, 2D spectrum and genetic algorithm analyses (ULTRASCAN); both purified

binding: no binding (tested: 0.3 mg/ml)
B1: intron debranching enzyme (Dbr1) from Entamoeba histolytica (enzyme, UniProt C4M1P9 1-354)
chain: MATEQIQHIAIVGCVHGKYREMYRQLSEYEKSTGKEISFVICTGDMQTLRYEADLVYLKVPPKYKQMGDFHLYYEGKEKAPYLTLFIGGNHESSNVLLHLYNGGFVCFNMYYLGVCSCININGLRIVGVSGIYKSFDEKKPYTYPPSPNDVVSLFHTRNYVIQMLSNLSQSSQIDISLSHDWPQGIVMKGNYKQLYRFQPGFKKDGASLGSPINKVILNTLKPKYWISGHMHCEYHAEEGPTHFIALGKIGYKNAISYLDLPLKQKTDLEYDKDWVCNLIMTWPAFSNKAQFPDLSYSISELLSKRTKELDKKIIELWEKYIGLKIIYDSDTFDIQFTSRRFYIEKIYNELNIN
